# According to the supplement of paper PMC10663445:
# Where a name gives a salt, the structure may show the parent alone. The list shows a part of the results. Repeats are few or missing, and single values can be far off.
# Tested on: hsa-miR-132-3p
# Experiment: miR-132-3p level in NGN2-iNs after compound treatment (TMM-normalised, ComBat batch-corrected) (batch-corrected normalised expression (arbitrary units)); higher = higher miR-132-3p expression
# Details: 10 µM; 24 h; human iPSC-derived NGN2 neurons (BR43)
row,Structure (SMILES),miR-132-3p level in NGN2-iNs
1,CC(=O)OCC[N+](C)(C)C [Acetylcholine Chloride],-0.185
2,Cn1cnc([N+](=O)[O-])c1Sc1ncnc2[nH]cnc12 [Azathioprine],0.653
3,CC(C)C(=O)Nc1ccc([N+](=O)[O-])c(C(F)(F)F)c1 [Flutamide],-1.11
4,O=C(O)CCCC[C@@H]1SC[C@@H]2NC(=O)N[C@@H]21 [Biotin (Vitamin B7)],0.169
5,CCOC(=O)Nc1ccc(NCc2ccc(F)cc2)nc1N [Flupirtine maleate],-1.05
6,COC(=O)C1=C(C)NC(C)=C(C(=O)OC(C)C)C1c1cccc2nonc12 (configuration not stated) [Isradipine],-0.29
7,Cn1c(Nc2ccc(C(F)(F)F)cc2)nc2cc(Oc3ccnc(-c4ncc(C(F)(F)F)[nH]4)c3)ccc21,-1.34
8,C[C@H](CCC(=O)O)[C@H]1CC[C@H]2[C@@H]3CC[C@@H]4C[C@H](O)CC[C@]4(C)[C@H]3CC[C@]12C [Lithocholic acid],-0.116
9,NCc1c[nH]c(=S)n1C1CCc2c(F)cc(F)cc2C1 [(R)-Nepicastat HCl],-0.426
10,CC(=O)SCC(Cc1ccccc1)C(=O)NCC(=O)OCc1ccccc1 (configuration not stated) [Racecadotril],0.355
11,C[C@@]1(c2cc(-c3cncnc3)c(F)cc2F)CCSC(N)=N1,1.8
12,CCc1cnn2c(NCc3ccc[n+]([O-])c3)cc(N3CCCC[C@H]3CCO)nc12,0.924
13,COc1ccccc1N1CCN(CCCNc2cc(=O)n(C)c(=O)n2C)CC1 [Urapidil HCl],-0.479
14,O=C(Nc1cccc(Nc2ncc(Br)c(NCCc3cnc[nH]3)n2)c1)N1CCCC1,0.548
15,O=C(/C=C/C=C/c1ccc2c(c1)OCO2)N1CCCCC1 [Piperine],-0.74
16,O=C(O)C(S)=Cc1c[nH]c2ccc(F)cc12,0.192
17,CCC(=O)OCC(=O)[C@@]1(OC(=O)CC)[C@@H](C)C[C@H]2[C@@H]3CCC4=CC(=O)C=C[C@]4(C)[C@@]3(Cl)[C@@H](O)C[C@@]21C [Beclomethasone dipropionate],0.125
18,C=CCn1c(=O)c2cnc(Nc3ccc(N4CCN(C)CC4)cc3)nc2n1-c1cccc(C(C)(C)O)n1 [Adavosertib (MK-1775)],0.204
19,c1cn2cc(-c3ccc4cn[nH]c4c3)nc(Nc3ccc(N4CCOCC4)cc3)c2n1 [Entospletinib (GS-9973)],1.06
20,CC(C)(C(=O)NCC(F)(F)C(F)(F)F)C(=O)N[C@@H]1C(=O)Nc2ccccc2-c2ccccc21,1.17
21,O=C1OC(CN2CCOCC2)CN1/N=C/c1ccc([N+](=O)[O-])o1 (configuration not stated) [Furaltadone HCl],-0.235
22,Cc1ccc(-c2c(-c3nn(C)c4ncnc(N5CC[C@H](N6CCCCC6)C5)c34)cnn2C)cc1,-0.283

# Two entries from above, bar-delimited:
row | Structure (SMILES) | miR-132-3p level in NGN2-iNs
15 | O=C(/C=C/C=C/c1ccc2c(c1)OCO2)N1CCCCC1 [Piperine] | -0.74
16 | O=C(O)C(S)=Cc1c[nH]c2ccc(F)cc12 | 0.192
